Drawing on ChEMBL document CHEMBL4513158, “CO-ADD screening of RKDF (India) compounds”, this text covers Inhibition for two molecules.

The list shows a part of the results. Results with a measured potency or affinity are listed apart.

This test has as its system Pseudomonas aeruginosa. The note with it: Concentration 32 ug.mL-1; ASSAY_TEST Inhibition of Bacterial Growth; detection method Absorption (OD600); MEDIA CAMHB; plate type 384well; NBS; CORNING #3640; time 18 hr.
The Inhibition is the percentage by which the read-out fell short of the control. The molecule `C=C[C@H]1[C@H](O[C@@H]2O[C@H](CO)[C@@H](O)[C@H](O)[C@H]2O)OC=C2C(=O)OCC[C@]21O` [SWERTIAMARIN] registered an Inhibition of 17.49%.

The molecule `CN(C)C(=N)NC(=N)N.Cl` [METFORMIN HYDROCHLORIDE] returned an Inhibition of 8.65%.
